The values that follow come from US7422849.

Chains of the proteins cited; added tags and fusions are not shown. Lines headed by an entry give the natural chain unless they say otherwise; changes in a name come on top.
UniProt P23726: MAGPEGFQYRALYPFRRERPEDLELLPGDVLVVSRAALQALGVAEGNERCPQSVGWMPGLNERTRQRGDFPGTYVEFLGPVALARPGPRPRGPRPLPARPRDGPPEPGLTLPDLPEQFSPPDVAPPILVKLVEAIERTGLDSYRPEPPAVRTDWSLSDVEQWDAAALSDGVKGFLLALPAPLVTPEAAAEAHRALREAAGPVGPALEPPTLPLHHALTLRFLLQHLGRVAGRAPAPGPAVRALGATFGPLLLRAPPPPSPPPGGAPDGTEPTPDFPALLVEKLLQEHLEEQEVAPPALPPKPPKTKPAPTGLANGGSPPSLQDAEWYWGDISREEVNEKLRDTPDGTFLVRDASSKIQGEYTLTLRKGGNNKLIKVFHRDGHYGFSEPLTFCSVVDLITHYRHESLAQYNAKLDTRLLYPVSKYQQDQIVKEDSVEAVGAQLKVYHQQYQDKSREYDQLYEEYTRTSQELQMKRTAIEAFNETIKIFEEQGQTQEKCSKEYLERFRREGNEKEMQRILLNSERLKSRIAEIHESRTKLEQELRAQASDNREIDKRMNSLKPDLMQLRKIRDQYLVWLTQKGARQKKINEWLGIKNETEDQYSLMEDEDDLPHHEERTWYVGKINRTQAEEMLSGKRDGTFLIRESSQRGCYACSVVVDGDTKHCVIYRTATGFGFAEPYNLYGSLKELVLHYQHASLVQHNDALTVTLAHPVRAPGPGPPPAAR
UniProt P23727: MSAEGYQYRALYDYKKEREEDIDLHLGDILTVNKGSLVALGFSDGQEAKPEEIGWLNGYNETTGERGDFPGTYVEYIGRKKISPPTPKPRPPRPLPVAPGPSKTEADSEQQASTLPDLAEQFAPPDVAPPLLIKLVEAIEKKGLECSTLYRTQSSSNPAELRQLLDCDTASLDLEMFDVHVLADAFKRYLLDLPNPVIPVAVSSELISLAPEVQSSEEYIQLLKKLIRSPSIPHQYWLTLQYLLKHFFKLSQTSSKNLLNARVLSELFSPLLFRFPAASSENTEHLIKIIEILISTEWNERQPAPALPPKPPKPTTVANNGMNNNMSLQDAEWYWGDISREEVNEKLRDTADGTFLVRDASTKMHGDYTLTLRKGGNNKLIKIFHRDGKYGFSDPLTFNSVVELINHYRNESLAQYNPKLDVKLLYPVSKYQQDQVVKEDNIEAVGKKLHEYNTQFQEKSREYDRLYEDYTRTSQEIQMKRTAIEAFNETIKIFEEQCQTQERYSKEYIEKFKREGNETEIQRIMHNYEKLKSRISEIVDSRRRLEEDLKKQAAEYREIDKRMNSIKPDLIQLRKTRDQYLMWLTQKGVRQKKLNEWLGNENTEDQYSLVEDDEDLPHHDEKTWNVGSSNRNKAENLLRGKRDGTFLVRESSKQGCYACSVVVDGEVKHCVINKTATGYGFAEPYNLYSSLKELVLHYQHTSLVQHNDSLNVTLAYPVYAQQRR
UniProt P42336: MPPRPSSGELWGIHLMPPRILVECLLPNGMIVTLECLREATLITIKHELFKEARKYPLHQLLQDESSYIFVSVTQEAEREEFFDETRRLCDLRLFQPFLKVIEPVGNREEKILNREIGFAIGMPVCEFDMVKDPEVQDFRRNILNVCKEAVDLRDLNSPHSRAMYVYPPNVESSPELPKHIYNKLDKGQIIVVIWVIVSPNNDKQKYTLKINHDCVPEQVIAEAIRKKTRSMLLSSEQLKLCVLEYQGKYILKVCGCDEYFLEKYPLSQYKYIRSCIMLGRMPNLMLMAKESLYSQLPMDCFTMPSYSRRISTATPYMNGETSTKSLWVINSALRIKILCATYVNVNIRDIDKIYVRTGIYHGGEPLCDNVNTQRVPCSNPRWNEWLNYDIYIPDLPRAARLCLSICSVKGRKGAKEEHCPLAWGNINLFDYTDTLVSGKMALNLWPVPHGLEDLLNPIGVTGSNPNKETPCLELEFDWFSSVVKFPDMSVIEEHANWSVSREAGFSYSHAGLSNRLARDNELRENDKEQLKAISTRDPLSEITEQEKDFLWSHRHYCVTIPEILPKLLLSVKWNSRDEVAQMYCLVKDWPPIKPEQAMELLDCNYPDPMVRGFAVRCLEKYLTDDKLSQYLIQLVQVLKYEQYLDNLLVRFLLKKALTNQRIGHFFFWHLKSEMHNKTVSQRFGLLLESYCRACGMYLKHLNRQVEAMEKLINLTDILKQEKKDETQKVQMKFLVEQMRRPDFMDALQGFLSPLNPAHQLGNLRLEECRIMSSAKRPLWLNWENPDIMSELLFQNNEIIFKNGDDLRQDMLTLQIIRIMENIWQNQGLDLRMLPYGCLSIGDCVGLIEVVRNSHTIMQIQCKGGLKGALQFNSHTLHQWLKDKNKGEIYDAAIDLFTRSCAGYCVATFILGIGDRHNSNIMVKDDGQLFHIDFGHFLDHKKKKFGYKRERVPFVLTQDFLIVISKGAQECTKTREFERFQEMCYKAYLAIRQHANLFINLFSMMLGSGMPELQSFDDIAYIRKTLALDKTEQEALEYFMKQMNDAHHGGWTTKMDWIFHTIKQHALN
UniProt P32871: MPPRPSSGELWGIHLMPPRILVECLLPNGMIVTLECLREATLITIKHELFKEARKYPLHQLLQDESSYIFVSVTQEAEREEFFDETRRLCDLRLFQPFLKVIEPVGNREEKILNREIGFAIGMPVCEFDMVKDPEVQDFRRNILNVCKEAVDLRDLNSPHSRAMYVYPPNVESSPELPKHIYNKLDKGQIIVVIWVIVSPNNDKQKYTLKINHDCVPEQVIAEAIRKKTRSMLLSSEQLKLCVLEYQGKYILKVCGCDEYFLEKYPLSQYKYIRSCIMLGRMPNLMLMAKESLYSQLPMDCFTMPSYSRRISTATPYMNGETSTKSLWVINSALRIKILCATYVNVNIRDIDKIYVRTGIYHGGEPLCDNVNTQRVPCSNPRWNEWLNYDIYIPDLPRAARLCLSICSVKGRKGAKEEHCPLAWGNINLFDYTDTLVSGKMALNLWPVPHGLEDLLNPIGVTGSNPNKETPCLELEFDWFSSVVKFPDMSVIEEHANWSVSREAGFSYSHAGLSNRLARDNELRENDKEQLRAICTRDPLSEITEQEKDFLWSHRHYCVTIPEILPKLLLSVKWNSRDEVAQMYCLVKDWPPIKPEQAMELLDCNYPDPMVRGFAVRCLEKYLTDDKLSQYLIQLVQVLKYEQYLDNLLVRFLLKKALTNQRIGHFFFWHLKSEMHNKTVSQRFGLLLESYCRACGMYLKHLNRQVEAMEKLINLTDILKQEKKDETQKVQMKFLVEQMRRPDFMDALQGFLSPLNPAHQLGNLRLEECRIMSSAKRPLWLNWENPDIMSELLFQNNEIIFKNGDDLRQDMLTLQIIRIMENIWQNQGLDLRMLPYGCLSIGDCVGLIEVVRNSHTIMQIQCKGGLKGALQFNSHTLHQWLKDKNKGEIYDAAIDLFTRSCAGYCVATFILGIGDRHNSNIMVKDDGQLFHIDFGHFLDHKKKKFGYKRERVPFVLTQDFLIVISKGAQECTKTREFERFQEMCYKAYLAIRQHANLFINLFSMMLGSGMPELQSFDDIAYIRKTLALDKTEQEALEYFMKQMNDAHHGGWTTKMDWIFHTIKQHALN

Assay [1] concerns the target bovine p85β (bovine) (UniProt P23726). The assay is described as follows: deletion mutants and PCR fragments of p110-N; retention of p85.
The target of assay [2] is bovine p85α (bovine) (UniProt P23727). The description is as above.
Assay [3] concerns the target bovine p85β (bovine) (UniProt P23726). The assay is described as follows: GST fusion on glutathione sepharose retaining p85 purified from baculovirus; SDS-PAGE.
Assay [4] addresses bovine p85α (bovine) (UniProt P23727). The description is as above.

These are yes or no findings as the source states them, for the method shown. Some binding calls cover weakened binding; strength is not graded here.

Consider “domain containing amino acids 19-110 of human p110 (from UniProt P42336 19-110)”, for which the binding result in the assay with bovine p85β (bovine) [1] and with bovine p85α (bovine) [2] was “binds” in each case.

Turning to “p110-N (amino acids 1-128 of human p110), GST fusion protein (from UniProt P32871 1-128)”, the binding result in the assay with bovine p85β (bovine) [3] and with bovine p85α (bovine) [4] was “binds” throughout.
